The campaign covered roughly 330,000 compounds. About 7,700 (2.3%) were called active. The inconclusive results got no clear call from the source; some entries with a clear call stand among them for comparison. Calls come from the whole dose curve; as a rule, active = well fitted inhibition curve with a large enough effect; inconclusive = small, poorly fitted or top-dose-only effect, or effect the other way; inactive = flat fitted curve, though single readings scatter. Where the call is inconclusive, the potency comes from a doubtful curve fit.
Assay: qHTS screen for small molecules that inhibit ELG1-dependent DNA repair in human embryonic kidney (HEK293T) cells expressing luciferase-tagged ELG1; note: nearly all actives have a fitted effect of over 55% in size
Conditions: HEK293T ELG1-luciferase reporter, luminescence, 16 h, DNA damage induced by 5-fluorouridine; activity change, negative = inhibition: at 46.1 µM (top of the series)
Method in brief: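 DMSO vehicle served as the neutral condition. Each well held 2,000 cells given 5-fluorouridine plus compound; after 16 hr at 37 °C/5% CO2, ONE-Glo was added and luciferase measured 30 min later.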
With `CCn1c(=O)c(C(=O)CN2CCN(S(=O)(=O)c3ccc(C)cc3C)CC2)c(N)n(Cc2ccccc2)c1=O` the Potency was inconclusive: 6.51 µM [inhibitor, partial curve]. With `COc1ccc(Cl)cc1NC(=O)CN(C)C(=O)c1sc2ccccc2c1Cl` the Potency was inconclusive: 35.5 µM [inhibitor, single point]. With `NC(=O)c1c(NC(=O)c2ccc(F)cc2)sc2c1CCC2` the Potency was inconclusive: 4.61 µM [activator, full curve]. In the case of `Cc1ccc(-c2nn(-c3ccccc3)cc2CNCc2ccccc2)cc1`, the “activity change, negative = inhibition” value is reported as inactive: -11.4%. For `O=C(CSc1nnc2ccc(-c3ccc(Br)cc3)nn12)NCC1CCCO1` (stereo not given), the “activity change, negative = inhibition” value was inactive: -23.5%. In the case of `O=C(CSc1nc2c(cnn2-c2ccc(F)cc2)c(=O)[nH]1)N1N=C(c2cccs2)CC1c1ccc(F)cc1` (stereo not given), the Potency is reported as inconclusive: 25.9 µM [inhibitor, single point]. In the case of `Cn1c(SCC(=O)NCC2CCCO2)nc2c([nH]c3ccccc32)c1=O` (stereo not given), the Potency is reported as inconclusive: 10.3 µM [inhibitor, partial curve, poor fit]. In the case of `O=c1cc(-c2ccccc2)nc2cc(-c3ccc(Br)cc3)[nH]n12`, the Potency is reported as inconclusive: 3.66 µM [activator, partial curve, poor fit]. With `CCOC(=O)N1CCN(c2c(NCCc3ccc(OC)c(OC)c3)c(=O)c2=O)CC1` the “activity change, negative = inhibition” value was inactive: -12.3%. With `COc1ccc(C2=NN(C(=O)c3ccc(Cl)c([N+](=O)[O-])c3)C(c3ccccc3)C2)cc1` (stereo not given) the Potency was inconclusive: 20.6 µM [inhibitor, single point]. With `CC(OC(=O)/C=C/c1cccs1)C(=O)Nc1ccc(C(N)=O)cc1` (stereo not given) the Potency was inconclusive: 35.5 µM [activator, single point]. In the case of `CCn1c(C)nnc1SCC(=O)NC1CCCC1`, the “activity change, negative = inhibition” value is reported as inactive: 17.8%. For `O=C(OCC(=O)N1CCCCC1)c1cc(NS(=O)(=O)c2ccc(Cl)c([N+](=O)[O-])c2)ccc1O`, the Potency was inconclusive: 29.1 µM [activator, single point]. With `COc1cc(OC)cc(C(=O)NNC(=O)CN2C(=O)NC(C)(c3ccc(C)cc3)C2=O)c1` (stereo not given) the “activity change, negative = inhibition” value was inactive: 21.6%. With `C/C(=N\NC(=O)C1CC1)c1ccc(OC(F)F)cc1OC(F)F` the “activity change, negative = inhibition” value was inactive: 5.82%. With `CCOC(=O)N1CCN(C(=O)C(C)n2nc(C)n3c(cc4sccc43)c2=O)CC1` (stereo not given) the Potency was inconclusive: 29.1 µM [inhibitor, single point]. For `COc1ccc(-c2csc(-c3ccc(C(=O)O)cc3)n2)cc1`, the Potency was inconclusive: 1.3 µM [activator, full curve]. For `COc1ccc(-n2c(=S)[nH]c3cc(C(=O)NCc4cccnc4)ccc3c2=O)c(OC)c1`, the “activity change, negative = inhibition” value was inactive: -0.0134%. In the case of `Cc1cc(-c2nnc(CCC(=O)NCCc3ccccc3F)o2)no1`, the “activity change, negative = inhibition” value is reported as inactive: 14.6%. In the case of `COc1ccc(CCNC(=O)c2cc(-c3ccccc3OC)on2)cc1OC`, the Potency is reported as active: 16.4 µM. For `Cc1cc(Cn2nc(-c3ccccc3)cc2C(=O)NCc2cccc(C(F)(F)F)c2)on1`, the Potency was inconclusive: 12.6 µM [inhibitor, single point]. For `CCN(CC)C(=O)CSc1nc2cc3c(cc2c(=O)n1Cc1ccc(OC)cc1)OCO3`, the “activity change, negative = inhibition” value was inactive: -23.2%. In the case of `Fc1ccccc1COc1ccc2ccccc2c1CNc1nn[nH]n1`, the Potency is reported as inconclusive: 18.3 µM [inhibitor, single point]. For `O=C(NCc1cccc(Cl)c1)C1CCCN(c2ncnc3c2nc2n3CCCCC2)C1` (stereo not given), the Potency was inconclusive: 25.9 µM [inhibitor, partial curve]. For `O=c1/c(=C\c2cccnc2)sc2nc3ccccc3n12`, the Potency was inconclusive: 7.31 µM [activator, single point]. For `CCCCn1c(N)c(N(CC(C)C)C(=O)CSc2n[nH]c(-c3ccc(C)cc3)n2)c(=O)[nH]c1=O`, the Potency was inconclusive: 20.6 µM [activator, single point]. With `COc1cc(OC)cc(C(=O)NNC(=O)CN2C(=O)NC(C)(c3ccccc3)C2=O)c1` (stereo not given) the “activity change, negative = inhibition” value was inactive: 10.6%. With `COC(=O)c1ccc2c(C)c(C3(O)CCCCC3)[nH]c2c1` the Potency was inconclusive: 5.17 µM [activator, full curve]. For `Cc1cc(C(=O)Nc2nc(-c3ccccn3)cs2)ccc1[N+](=O)[O-]`, the Potency was inconclusive: 3.26 µM [inhibitor, single point]. With `O=C(CCc1nc(-c2ccccc2F)no1)NCCc1ccccc1Cl` the Potency was inconclusive: 16.4 µM [inhibitor, partial curve, poor fit]. With `CCCN(CC1CC1)C(=O)COC(=O)c1oc2c(F)cccc2c1C` the “activity change, negative = inhibition” value was inactive: -3.7%. In the case of `COC(=O)c1ccc(Cl)c(NC(C)=O)c1`, the “activity change, negative = inhibition” value is reported as inactive: 9.52%. With `Cc1sc(NC(=O)CSc2nc(N)cc(N)n2)c(C#N)c1C` the Potency was inconclusive: 23.1 µM [inhibitor, single point]. With `COc1ccc(C(OC(=O)c2ccco2)C(=O)NC2CCCCC2)cc1` (stereo not given) the “activity change, negative = inhibition” value was inactive: 3.84%. For `CC(C)c1cc(C(=O)N/N=C/c2c[nH]c3ccccc23)n[nH]1`, the “activity change, negative = inhibition” value was inactive: 13.6%. With `COc1ccc(-c2oc(=O)c3cc(OC)c(OC)cc3c2-c2cc(F)cc(OC)c2)cc1` the “activity change, negative = inhibition” value was inactive: -23.1%. In the case of `CCC[C@@H]1CCCC/C=C\CCCC(=O)OCCN1C(=O)OC(C)(C)C`, the “activity change, negative = inhibition” value is reported as inactive: 25%. For `COc1ccc(Cn2c(/C=C/c3ccccc3)nc3ccccc32)cc1`, the Potency was inconclusive: 6.31 µM [activator, full curve, poor fit]. For `CC(c1cccs1)N(C(=O)Nc1ccccc1)C1CCCCC1` (stereo not given), the Potency was inconclusive: 23.1 µM [activator, partial curve, poor fit]. For `CCOC(=O)C1CCCN(Cc2nc3ccc([N+](=O)[O-])cc3c(=O)n2-c2ccc(OC)cc2OC)C1` (stereo not given), the “activity change, negative = inhibition” value was inactive: -10.1%. For `Cc1ccc(C2C(C#N)=C(N)Oc3cc4c(cc32)OCO4)cc1` (stereo not given), the Potency was inconclusive: 20.6 µM [inhibitor, single point]. For `Cc1cccc(C(=O)NC(=S)N(C)C2CCCCC2)c1`, the Potency was inconclusive: 18.3 µM [activator, partial curve]. For `COc1ccc2[nH]c(C(=O)NCCCN3CCCC3=O)c(C)c2c1`, the Potency was inconclusive: 18.3 µM [activator, single point]. With `Cc1c(Nc2nc(-c3cccc([N+](=O)[O-])c3)cs2)c(=O)n(-c2ccccc2)n1C` the “activity change, negative = inhibition” value was inactive: 5.85%. For `N#Cc1c(Nc2ccccc2)c(/C=N/N=C/c2ccccc2)c[nH]c1=O`, the Potency was inconclusive: 20.6 µM [inhibitor, partial curve].

Source: PubChem BioAssay AID504467 (National Center for Advancing Translational Sciences (NCATS), 2011)
% is set by controls: 0 for no effect and ±100 for the full control effect; potency is the fitted concentration of half-maximal effect.
